From article PMC6393503
No constants are given. Whether binding was seen depends on the method and setting. In cells and extracts the contact can be indirect. Here binding means that the protein was enriched with, or labelled near, the bait; the list need not be complete.

By UniProt entry, the sequences of proteins in these tests, tags left out.
UniProt Q8NA03: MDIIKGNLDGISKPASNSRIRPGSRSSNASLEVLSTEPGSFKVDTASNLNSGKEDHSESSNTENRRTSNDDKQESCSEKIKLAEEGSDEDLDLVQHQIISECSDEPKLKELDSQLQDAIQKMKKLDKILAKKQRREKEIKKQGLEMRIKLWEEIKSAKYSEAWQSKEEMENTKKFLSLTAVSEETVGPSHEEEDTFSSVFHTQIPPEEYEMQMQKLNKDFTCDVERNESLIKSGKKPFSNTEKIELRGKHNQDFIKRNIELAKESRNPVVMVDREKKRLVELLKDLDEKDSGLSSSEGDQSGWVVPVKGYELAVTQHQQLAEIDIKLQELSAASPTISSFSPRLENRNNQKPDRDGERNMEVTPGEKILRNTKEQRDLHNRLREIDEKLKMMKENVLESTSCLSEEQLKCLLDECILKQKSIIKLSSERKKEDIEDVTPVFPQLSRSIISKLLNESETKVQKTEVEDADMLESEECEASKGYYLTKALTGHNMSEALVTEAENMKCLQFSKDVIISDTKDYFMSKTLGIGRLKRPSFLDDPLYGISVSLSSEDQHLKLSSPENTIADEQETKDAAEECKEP

Target: FSIP1 (His-tagged) (UniProt Q8NA03)
Experiment: co-IP + affinity purification with mass spectrometry; anti-His-tag immunoprecipitation from RIPA lysate of cells over-expressing FSIP1-His, compared with empty-vector cells and an IgG control; immunoblot and MALDI-TOF/TOF of in-gel digested bands

binding: binds
Substance: multidrug resistance protein 1 (MRP1) (from UniProt P33527-1 1-1531)
